# About 5,400 (1.8%) of roughly 300,000 compounds were called active. The shares of active, inactive and inconclusive entries below differ from those in the screen. Calls come from the whole dose curve; tested in HEK293 cells. A potency beside an inconclusive call is a rough fit, not a confirmed value.
# Assay: qHTS for inhibitors of binding or entry into cells for Marburg Virus
# Conditions: Marburg virus pseudotyped entry inhibition, cell reporter; series mostly up to 37.8 µM
# Potency is the fitted concentration of half-maximal effect.
row,SMILES,Potency
1,Cc1ccc(N2CCN(C(=O)c3cccs3)CC2)c(C)c1,"inconclusive: 3.98 µM [inhibitor, partial curve, poor fit]"
2,CCn1c(=O)c(-c2nc3ccccc3[nH]2)c(O)c2ccccc21,inactive
3,Cn1c(-c2ccc3c(c2)OCO3)cnc1NCc1ccccc1,"inconclusive: 29.1 µM [inhibitor, single point]"
4,O=C(NCc1cccnc1)c1ccc(COc2cccc3ccccc23)o1,"inconclusive: 2.51 µM [inhibitor, full curve, poor fit]"
5,Cc1nc2c(c3c1[nH]c1ccccc13)C(O)CC(C)(C)C2 (centres undefined),"inconclusive: 1.26 µM [inhibitor, full curve, poor fit]"
6,CCC1(C)Cc2c(sc3nnn(Cc4ccccc4Cl)c(=O)c23)CO1 (centres undefined),"inconclusive: 9.2 µM [inhibitor, partial curve, poor fit]"
7,CCNc1nc(NCC)n2c(SC(C)C(=O)c3ccc(C)cc3)nnc2n1 (centres undefined),active: 11.6 µM
8,CCN(CC)C(=O)Cn1c(=O)c2ccccc2n2c(=S)sc(-c3cccc(C)c3)c12,inactive
9,CCN(CC)CCNc1ccnc2cc(Cl)ccc12,active: 2.91 µM
10,O=C(CSc1nnc(CNc2ccc(F)cc2)o1)c1ccccc1,inactive
11,CC(=O)Nc1ccc2nc(SCC(=O)O)sc2c1,inactive
12,Cc1c(C(=O)NCc2cccs2)oc2ccccc12,"inconclusive: 2.59 µM [activator, partial curve, poor fit]"
13,CCN(CC)S(=O)(=O)c1ccc(C)c(NCC(=O)Nc2ccc(C#N)c(Cl)c2)c1,"inconclusive: 20 µM [inhibitor, partial curve, poor fit]"
14,O=C(c1cc([N+](=O)[O-])ccc1N1CCCC1)N1CCCC1,inactive
15,COc1cc2c(cc1OC)C(c1ccc(-c3cc(Cl)ccc3Cl)o1)=NCC2,"inconclusive: 2.82 µM [inhibitor, full curve]"
16,CCn1nc(NC(=O)c2ccncc2)c2cc3ccc(C)cc3nc21,"inconclusive: 2.06 µM [inhibitor, full curve, poor fit]"
17,O=C(O)c1ccc(CSc2nnc(-c3cccnc3)n2-c2ccc(Br)cc2)cc1,"inconclusive: 11.2 µM [activator, partial curve, poor fit]"
18,COc1ccc(/C=N/OCC(=O)NC(c2ccccc2)c2ccccc2)cc1OC,"inconclusive: 7.08 µM [inhibitor, full curve, poor fit]"
19,COc1ccc(-c2nc(-c3ccccc3)ncc2S(C)(=O)=O)cc1,inactive
20,Cn1c(=N)n(CC(=O)c2ccc(Br)cc2)c2ccccc21,"inconclusive: 7.94 µM [inhibitor, partial curve, poor fit]"
21,CNC(=O)COC(=O)/C=C/c1cccs1,"inconclusive: 14.1 µM [activator, single point]"
22,CCCc1ccc(OCCNC(=O)CC)cc1,inactive
23,Cc1ccnc(NC(c2ccncc2)c2c(C)[nH]c3ccccc23)c1 (centres undefined),"inconclusive: 3.55 µM [activator, single point]"

row,SMILES,Potency
1,O=C(Cc1ccccc1)N1CCN(Cc2ccc([N+](=O)[O-])cc2)CC1,"inconclusive: 0.146 µM [inhibitor, partial curve, poor fit]"
2,COc1cc2c(cc1OC)C(c1ccccc1OC(C)C)CC(=O)N2 (centres undefined),"inconclusive: 5.01 µM [inhibitor, partial curve, poor fit]"
3,Cc1onc(-c2ccccc2)c1C(=O)NC(=S)Nc1sc2c(c1C#N)CCCC2,inactive
4,O=C(C1CCN(c2nnc(N3CCCC3=O)s2)CC1)N1CCN(Cc2ccc3c(c2)OCO3)CC1,"inconclusive: 35.5 µM [inhibitor, single point]"
5,COc1ccc(N/C(=C/[N+](=O)[O-])SC)cc1,inactive
6,Cc1cc(C)cc(NC(=O)CSc2ccc(-c3ccco3)nn2)c1,"inconclusive: 35.5 µM [inhibitor, single point]"
7,S=C(Nc1ccccc1)N1N=C(c2cccs2)CC1c1cccs1 (centres undefined),"inconclusive: 11.2 µM [inhibitor, single point]"
8,CCOc1cc(C2NC(=O)NC(C)=C2C(=O)OCC2CCCCC2)ccc1O (centres undefined),"inconclusive: 35.5 µM [inhibitor, single point]"
9,COC(=O)/C=C\C(=O)Nc1cccc([N+](=O)[O-])c1,"inconclusive: 35.5 µM [inhibitor, single point]"
10,CCC(=O)N1CCc2cc(S(=O)(=O)NCCC(=O)Nc3cc(C)cc(C)c3)ccc21,inactive
11,Cc1cc(=O)[nH]c2ccccc12,"inconclusive: 0.316 µM [activator, partial curve, poor fit]"
12,COc1ccc(N2CCN(C(c3nnnn3CCc3ccccc3)C(C)C)CC2)cc1 (centres undefined),"inconclusive: 35.5 µM [inhibitor, single point]"
13,COc1ccc(/C=C/C2=CC3(C)CC2(C)C(c2ccc(OC)cc2)CC3=O)cc1 (centres undefined),inactive
14,CCN(CC)CCCNC(=O)CSc1nc2c(c(C(F)(F)F)n1)CCc1ccccc1-2,"inconclusive: 10 µM [inhibitor, partial curve, poor fit]"
15,COc1ccc(S(=O)(=O)N2CCCC2)c2ccccc12,"inconclusive: 35.5 µM [inhibitor, single point]"
16,COc1ccccc1N=NC1C(=O)N(C(N)=S)N=C1C (centres undefined),inactive
17,CCOC(=O)c1sc(NC(C)=O)nc1C,"inconclusive: 18.3 µM [inhibitor, single point]"
18,CCOC(=O)c1c(C)[nH]c(C(=O)CSc2nnc(CC(C)c3ccccc3)o2)c1C (centres undefined),"inconclusive: 29.1 µM [inhibitor, single point]"
19,CCC(C)c1ccccc1N1CC(C(=O)Nc2ccc(C)c(S(=O)(=O)N3CCOCC3)c2)CC1=O (centres undefined),"inconclusive: 35.5 µM [inhibitor, single point]"
20,O=C(Cn1cnc2ccccc2c1=O)Nc1cccc(-c2nnc3n2CCCCC3)c1,"inconclusive: 11.2 µM [activator, single point]"
21,O=C(CSc1nc2ccccc2c(=O)n1-c1ccc(Cl)cc1)N/N=C/C=C/c1ccccc1[N+](=O)[O-],"inconclusive: 6.31 µM [inhibitor, single point]"
22,O=C(NCc1ccco1)C(c1cccs1)N(C(=O)C1COc2ccccc2O1)c1cccc(O)c1 (centres undefined),inactive
23,COc1ccc(/C=N/Nc2ncnc3sc4c(c23)CCCC4)cc1O,"inconclusive: 35.5 µM [inhibitor, partial curve, poor fit]"

row,SMILES,Potency
1,COc1ccc(C(=O)N/N=C(\C)Cn2nc([N+](=O)[O-])cc2C)cc1,"inconclusive: 0.1 µM [activator, full curve, poor fit]"
2,O=C(CCC(=O)N/N=C/c1cc(Cl)cc(Cl)c1O)NCc1ccccc1,"inconclusive: 6.31 µM [inhibitor, full curve, poor fit]"
3,COc1ccc(C(CC(=O)NCc2ccco2)c2ccc(F)cc2)cc1 (centres undefined),inactive
4,Cc1cc(C)nc(SCc2nnc(SCc3ccc([N+](=O)[O-])cc3)n2Cc2ccco2)n1,"inconclusive: 35.5 µM [inhibitor, partial curve, poor fit]"
5,CCOc1ccc(C(=O)NC(=S)Nc2ccc(NC(=O)c3ccco3)cc2)cc1[N+](=O)[O-],inactive
6,COc1ccc2c(c1OC)C(=O)N(c1ccccc1)C2=O,inactive
7,COc1ccccc1CCN1COc2c(cc3c(C)c(C)c(=O)oc3c2C)C1,"inconclusive: 35.5 µM [inhibitor, single point]"
8,O=C(N1CCOCC1)N1CCN(S(=O)(=O)N2CCCCC2)CC1,inactive
9,NCC(c1ccccc1)(c1ccccc1)c1ccccc1,active: 7.94 µM
10,COc1cccc(C2c3c(C)nn(-c4ccc([N+](=O)[O-])cc4)c3N=C3C(=O)Nc4ccccc4N32)c1 (centres undefined),inactive
11,NC(=O)c1cc(Br)cc(C2CCCCC2)c1O,"inconclusive: 1.58 µM [activator, partial curve, poor fit]"
12,C=CCn1c(SCC(=O)NC)nc2sc3c(c2c1=O)CCC3,"inconclusive: 0.501 µM [inhibitor, full curve, poor fit]"
13,COC1=C/C(=C/c2c(N)n3cc(C)sc3nc2=O)C=CC1=O,"inconclusive: 4.11 µM [activator, partial curve, poor fit]"
14,NC(=O)COC(=O)CC12CC3CC(CC(Br)(C3)C1)C2,inactive
15,CC(C)Oc1ccc(C2C(C#N)=C(N)Oc3c2c(=O)oc2ccccc32)cc1 (centres undefined),"inconclusive: 2.51 µM [inhibitor, partial curve]"
16,CCOc1ccc(N2CC(c3nc4ccccc4n3CCCCOc3ccc(OC)cc3)CC2=O)cc1 (centres undefined),"inconclusive: 25.1 µM [inhibitor, single point]"
17,CCC(=O)N1CCN(c2ccc(NC(=O)c3cc4ccccc4o3)cc2)CC1,inactive
18,O=C(N/N=C/c1ccc2c(c1)OCO2)c1ccc(Br)o1,"inconclusive: 0.112 µM [activator, partial curve, poor fit]"
19,COc1ccc(NC(=O)COc2ccc(N(C)S(=O)(=O)c3ccc(Cl)cc3)cc2)cc1OC,"inconclusive: 3.16 µM [inhibitor, partial curve, poor fit]"
20,COc1ccc(OC)c(-c2csc(NC(=O)c3ccc4c(c3)OCO4)n2)c1,inactive
21,Cc1cccc(OC(C)C(=O)Nc2nonc2-c2ccc(Br)cc2)c1C (centres undefined),"inconclusive: 20 µM [inhibitor, partial curve, poor fit]"
22,Cc1noc(C)c1CN1C(=O)NC2(CCCCCCC2)C1=O,"inconclusive: 3.55 µM [inhibitor, single point]"
23,CC1(C)OC(=O)C(=CNNc2c(Cl)cc(Cl)cc2Cl)C(=O)O1,inactive

# Reference: PubChem BioAssay AID540276 (National Center for Advancing Translational Sciences (NCATS), 2011)
